# Results: the supplement of paper PMC8728848
# This is one part of the list.
# B1: Erv41-EDTA (Saccharomyces cerevisiae), Q04651 (protein)
# chain: MKFLVNVALVFMVVYISYIYAAAPEHHHHHHDYDIPTTENLYFQGAMGYIDQQYVVDSQVRDTVQINMDIYVNTKCDWLQINVRDQTMDRKLVLEELQLEEMPFFIPYDTKVNDINEIITPELDEILGEAIPAEFREKLDTRSFFDESDPNKAHLPEFNGCHVFGSIPVNRVSGELQITAKSLGYVASRKAPLEELKFNHVINEFSFGDFYPYIDNPLDNTAQFNQDEPLTTYVYYTSVVPTLFKKLGAEVDTNQYSVNDYRYLYKDVAAKGDKMPGIFFKYNFEPLSIVVSDVRL
# Key:
# Experiment in all cases: glycan array binding signal (z-score within array); higher = stronger binding
# Details in all cases: glycan notation: IUPAC condensed, linker removed
# [1] = biological target: Fuc(a1-2)[Gal(a1-3)]Gal(b1-4)GlcNAc(b1-2)Man(a1-3)[Fuc(a1-2)[Gal(a1-3)]Gal(b1-4)GlcNAc(b1-2)Man(a1-6)]Man(b1-4)GlcNAc(b1-4)GlcNAc
# Procedure, shortened: (§1)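 The binding signal is a Z-score computed within each array and averaged over linkers. Arrays of the same protein sequence at different concentrations or buffers were also averaged together. Data originate from 3228 arrays in the Consortium for Functional Glycomics database, kept only where the protein sequence was available.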
# [2] = biological target: Fuc(a1-2)[Gal(a1-3)]Gal(b1-4)GlcNAc(b1-2)Man(a1-3)[Fuc(a1-2)[Gal(a1-3)]Gal(b1-4)GlcNAc(b1-2)Man(a1-6)]Man(b1-4)GlcNAc(b1-4)[Fuc(a1-6)]GlcNAc
# Procedure, shortened: as §1
# [3] = biological target: Fuc(a1-2)[Gal(a1-3)]Gal(b1-4)GlcNAc(b1-3)GalNAc
# Procedure, shortened: as §1
# [4] = biological target: Fuc(a1-2)[Gal(a1-3)]Gal(b1-4)GlcNAc(b1-3)[Fuc(a1-2)[Gal(a1-3)]Gal(b1-4)GlcNAc(b1-6)]GalNAc
# Procedure, shortened: as §1
# [5] = biological target: Fuc(a1-2)[Gal(a1-3)]Gal(b1-4)GlcNAc(b1-6)GalNAc
# Procedure, shortened: as §1
# [6] = biological target: Fuc(a1-2)[Gal(a1-3)]Gal(b1-4)[Fuc(a1-3)]Glc
# Procedure, shortened: as §1
# [7] = biological target: Fuc(a1-2)[Gal(a1-3)]Gal(b1-4)[Fuc(a1-3)]GlcNAc
# Procedure, shortened: as §1
# [8] = biological target: Fuc(a1-2)[Gal(a1-3)]Gal(b1-4)[Fuc(a1-3)]GlcNAc(b1-3)GalNAc
# Procedure, shortened: as §1
# [9] = biological target: Fuc(a1-2)[Gal(a1-4)]Gal(b1-4)GlcNAc
# Procedure, shortened: as §1
# [10] = biological target: Fuc(a1-2)[GalNAc(a1-3)]Gal
# Procedure, shortened: as §1
# [11] = biological target: Fuc(a1-2)[GalNAc(a1-3)]Gal(b1-3)GalNAc(a1-3)[Fuc(a1-2)]Gal(b1-4)GlcNAc
# Procedure, shortened: as §1
# [12] = biological target: Fuc(a1-2)[GalNAc(a1-3)]Gal(b1-3)GalNAc(b1-3)Gal(a1-4)Gal(b1-4)Glc
# Procedure, shortened: as §1
# [13] = biological target: Fuc(a1-2)[GalNAc(a1-3)]Gal(b1-3)GlcNAc
# Procedure, shortened: as §1
# [14] = biological target: Fuc(a1-2)[GalNAc(a1-3)]Gal(b1-3)GlcNAc(b1-2)Man(a1-3)[Fuc(a1-2)[GalNAc(a1-3)]Gal(b1-3)GlcNAc(b1-2)Man(a1-6)]Man(b1-4)GlcNAc(b1-4)GlcNAc
# Procedure, shortened: as §1
# [15] = biological target: Fuc(a1-2)[GalNAc(a1-3)]Gal(b1-3)GlcNAc(b1-2)Man(a1-3)[Fuc(a1-2)[GalNAc(a1-3)]Gal(b1-3)GlcNAc(b1-2)Man(a1-6)]Man(b1-4)GlcNAc(b1-4)[Fuc(a1-6)]GlcNAc
# Procedure, shortened: as §1
# [16] = biological target: Fuc(a1-2)[GalNAc(a1-3)]Gal(b1-3)GlcNAc(b1-3)GalNAc
# Procedure, shortened: as §1
# [17] = biological target: Fuc(a1-2)[GalNAc(a1-3)]Gal(b1-3)GlcNAc(b1-6)GalNAc
# Procedure, shortened: as §1
# [18] = biological target: Fuc(a1-2)[GalNAc(a1-3)]Gal(b1-4)Glc
# Procedure, shortened: as §1
# [19] = biological target: Fuc(a1-2)[GalNAc(a1-3)]Gal(b1-4)GlcNAc
# Procedure, shortened: as §1
# [20] = biological target: Fuc(a1-2)[GalNAc(a1-3)]Gal(b1-4)GlcNAc(b1-2)Man
# Procedure, shortened: as §1
# [21] = biological target: Fuc(a1-2)[GalNAc(a1-3)]Gal(b1-4)GlcNAc(b1-2)Man(a1-3)[Fuc(a1-2)[GalNAc(a1-3)]Gal(b1-4)GlcNAc(b1-2)Man(a1-6)]Man(b1-4)GlcNAc(b1-4)GlcNAc
# Procedure, shortened: as §1
# [22] = biological target: Fuc(a1-2)[GalNAc(a1-3)]Gal(b1-4)GlcNAc(b1-2)Man(a1-3)[Fuc(a1-2)[GalNAc(a1-3)]Gal(b1-4)GlcNAc(b1-2)Man(a1-6)]Man(b1-4)GlcNAc(b1-4)[Fuc(a1-6)]GlcNAc
# Procedure, shortened: as §1
# [23] = biological target: Fuc(a1-2)[GalNAc(a1-3)]Gal(b1-4)GlcNAc(b1-3)Gal(b1-4)GlcNAc
# Procedure, shortened: as §1
# [24] = biological target: Fuc(a1-2)[GalNAc(a1-3)]Gal(b1-4)GlcNAc(b1-3)Gal(b1-4)GlcNAc(b1-3)Gal(b1-4)GlcNAc
# Procedure, shortened: as §1
# [25] = biological target: Fuc(a1-2)[GalNAc(a1-3)]Gal(b1-4)GlcNAc(b1-3)GalNAc
# Procedure, shortened: as §1
# [26] = biological target: Fuc(a1-2)[GalNAc(a1-3)]Gal(b1-4)GlcNAc(b1-3)[Fuc(a1-2)[GalNAc(a1-3)]Gal(b1-4)GlcNAc(b1-6)]GalNAc
# Procedure, shortened: as §1
# [27] = biological target: Fuc(a1-2)[GalNAc(a1-3)]Gal(b1-4)GlcNAc(b1-6)GalNAc
# Procedure, shortened: as §1
# [28] = biological target: Fuc(a1-2)[GalNAc(a1-3)]Gal(b1-4)[Fuc(a1-3)]GlcNAc
# Procedure, shortened: as §1
# [29] = biological target: Fuc(a1-2)[GalNAc(a1-3)]Gal(b1-4)[Fuc(a1-3)]GlcNAc(b1-3)GalNAc
# Procedure, shortened: as §1
# [30] = biological target: Fuc(a1-2)[GalNAc(a1-4)]Gal(b1-4)GlcNAc
# Procedure, shortened: as §1
# [31] = biological target: Fuc(a1-2)[GalNAc(b1-3)]Gal
# Procedure, shortened: as §1
# [32] = biological target: Fuc(a1-3)GlcNAc
# Procedure, shortened: as §1
# [33] = biological target: Fuc(a1-3)[Gal(b1-4)]Glc6S
# Procedure, shortened: as §1
# [34] = biological target: Fuc(a1-3)[Gal(b1-4)]GlcNAc
# Procedure, shortened: as §1
# [35] = biological target: Fuc(a1-3)[Gal(b1-4)]GlcNAc(b1-2)Man
# Procedure, shortened: as §1
# [36] = biological target: Fuc(a1-3)[Gal(b1-4)]GlcNAc(b1-2)Man(a1-3)[Fuc(a1-3)[Gal(b1-4)]GlcNAc(b1-2)Man(a1-6)]Man(b1-4)GlcNAc(b1-4)GlcNAc
# Procedure, shortened: as §1
# [37] = biological target: Fuc(a1-3)[Gal(b1-4)]GlcNAc(b1-2)Man(a1-3)[Fuc(a1-3)[Gal(b1-4)]GlcNAc(b1-2)Man(a1-6)]Man(b1-4)GlcNAc(b1-4)[Fuc(a1-6)]GlcNAc
# Procedure, shortened: as §1
binder,measurement,setting,value
B1,glycan array binding signal (z-score),[1],1.55
same,glycan array binding signal (z-score),[2],-0.299
same,glycan array binding signal (z-score),[3],0.779
same,glycan array binding signal (z-score),[4],0.595
same,glycan array binding signal (z-score),[5],0.141
same,glycan array binding signal (z-score),[6],-0.478
same,glycan array binding signal (z-score),[7],-0.592
same,glycan array binding signal (z-score),[8],0.33
same,glycan array binding signal (z-score),[9],0.519
same,glycan array binding signal (z-score),[10],-0.488
same,glycan array binding signal (z-score),[11],0.174
same,glycan array binding signal (z-score),[12],-0.058
same,glycan array binding signal (z-score),[13],-0.953
same,glycan array binding signal (z-score),[14],0.382
same,glycan array binding signal (z-score),[15],0.311
same,glycan array binding signal (z-score),[16],-0.104
same,glycan array binding signal (z-score),[17],-0.093
same,glycan array binding signal (z-score),[18],-0.657
same,glycan array binding signal (z-score),[19],0.079
same,glycan array binding signal (z-score),[20],-0.289
same,glycan array binding signal (z-score),[21],0.526
same,glycan array binding signal (z-score),[22],1.01
same,glycan array binding signal (z-score),[23],0.162
same,glycan array binding signal (z-score),[24],0.784
same,glycan array binding signal (z-score),[25],-0.654
same,glycan array binding signal (z-score),[26],-0.844
same,glycan array binding signal (z-score),[27],0.169
same,glycan array binding signal (z-score),[28],-0.12
same,glycan array binding signal (z-score),[29],0.16
same,glycan array binding signal (z-score),[30],-0.189
same,glycan array binding signal (z-score),[31],-0.459
same,glycan array binding signal (z-score),[32],-0.823
same,glycan array binding signal (z-score),[33],0.606
same,glycan array binding signal (z-score),[34],-0.54
same,glycan array binding signal (z-score),[35],-0.808
same,glycan array binding signal (z-score),[36],0.228
same,glycan array binding signal (z-score),[37],0.071

# 2 neighbouring entries already listed:
binder,measurement,setting,value
B1,glycan array binding signal (z-score),[24],0.784
same,glycan array binding signal (z-score),[25],-0.654
